Source: the supplement of paper PMC6078165

Tested on: MDAMB231
Assay: relative JC-1 red fluorescence (viability) vs pre-drug, coculture with fibroblast (fraction); higher = more viable cancer cells
Method: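 JC-1 labelled TNBC cells cocultured 1:1 (1,500 cells each) with CellTrace Violet stained primary or stromal fibroblasts in 384-well plates in FluoroBrite medium, treated with one of 42 anticancer drugs at 0.1, 1, 10 or 100 uM. JC-1 red fluorescence (mitochondrial integrity in cancer cells only) was read by plate reader every 8 h for 72 h. Values are normalised to each well's pre-drug value. The stock of one drug was tenfold lower, so its dose labels may be too high.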

CCCCCOC(=O)Nc1nc(=O)n([C@@H]2O[C@H](C)[C@@H](O)[C@H]2O)cc1F [Capecitabine]
relative JC-1 red fluorescence
Conditions	8 h	16 h	24 h	32 h	40 h	48 h	56 h	64 h	72 h
10 µM, coculture fibroblast: C12385	0.802 ± 0.023	0.751 ± 0.043	0.673 ± 0.065	0.658 ± 0.059	0.596 ± 0.08	0.562 ± 0.073	0.515 ± 0.076	0.504 ± 0.081	0.477 ± 0.088
10 µM, coculture fibroblast: H6013	0.903 ± 0.014	0.858 ± 0.038	0.812 ± 0.059	0.791 ± 0.061	0.755 ± 0.059	0.714 ± 0.046	0.702 ± 0.069	0.664 ± 0.048	0.613 ± 0.046
10 µM, coculture fibroblast: H6019	0.764 ± 0.078	0.689 ± 0.059	0.671 ± 0.058	0.64 ± 0.089	0.6 ± 0.091	0.577 ± 0.1	0.534 ± 0.1	0.532 ± 0.097	0.507 ± 0.097
10 µM, coculture fibroblast: H6076	0.9034 ± 0.0041	0.821 ± 0.022	0.751 ± 0.046	0.719 ± 0.045	0.674 ± 0.053	0.631 ± 0.064	0.592 ± 0.062	0.568 ± 0.066	0.55 ± 0.061
10 µM, coculture fibroblast: H6231	0.957 ± 0.013	0.87383 ± 0.00081	0.769 ± 0.039	0.699 ± 0.051	0.632 ± 0.057	0.589 ± 0.047	0.532 ± 0.035	0.508 ± 0.04	0.472 ± 0.039
10 µM, coculture fibroblast: HADF	0.888 ± 0.019	0.844 ± 0.032	0.796 ± 0.018	0.767 ± 0.024	0.731 ± 0.025	0.677 ± 0.019	0.673 ± 0.024	0.655 ± 0.011	0.6113 ± 0.0022
10 µM, coculture fibroblast: HCFa	0.891 ± 0.0064	0.833 ± 0.018	0.797 ± 0.039	0.765 ± 0.041	0.711 ± 0.028	0.656 ± 0.04	0.634 ± 0.037	0.599 ± 0.062	0.549 ± 0.069
10 µM, coculture fibroblast: HCPF	0.848 ± 0.031	0.753 ± 0.026	0.696 ± 0.019	0.662 ± 0.026	0.602 ± 0.017	0.563 ± 0.01	0.5152 ± 0.00076	0.485 ± 0.0051	0.468 ± 0.0058
10 µM, coculture fibroblast: HHSteC	0.909 ± 0.022	0.862 ± 0.011	0.808 ± 0.024	0.748 ± 0.029	0.702 ± 0.031	0.674 ± 0.045	0.627 ± 0.055	0.595 ± 0.055	0.552 ± 0.06
10 µM, coculture fibroblast: HMF	0.898 ± 0.015	0.827 ± 0.015	0.7524 ± 0.0053	0.693 ± 0.0083	0.638 ± 0.0078	0.5945 ± 0.00078	0.551 ± 0.012	0.5243 ± 0.0035	0.499 ± 0.013
10 µM, coculture fibroblast: HPFa	0.958 ± 0.023	0.878 ± 0.015	0.812 ± 0.025	0.757 ± 0.03	0.719 ± 0.027	0.668 ± 0.028	0.6 ± 0.017	0.56 ± 0.025	0.494 ± 0.033
10 µM, coculture fibroblast: HUF	0.865 ± 0.023	0.719 ± 0.015	0.764 ± 0.034	0.642 ± 0.029	0.582 ± 0.037	0.566 ± 0.039	0.518 ± 0.047	0.523 ± 0.04	0.503 ± 0.038
10 µM, coculture fibroblast: Hs5	0.878 ± 0.036	0.7944 ± 0.0059	0.725 ± 0.015	0.678 ± 0.019	0.625 ± 0.015	0.569 ± 0.018	0.524 ± 0.016	0.493 ± 0.025	0.468 ± 0.025
10 µM, coculture fibroblast: Hs27A	0.9048 ± 0.0043	0.821 ± 0.026	0.775 ± 0.028	0.738 ± 0.028	0.674 ± 0.025	0.587 ± 0.025	0.601 ± 0.021	0.578 ± 0.018	0.526 ± 0.015
10 µM, coculture fibroblast: Hs343T	0.86 ± 0.044	0.772 ± 0.055	0.698 ± 0.067	0.653 ± 0.063	0.603 ± 0.062	0.553 ± 0.062	0.499 ± 0.061	0.473 ± 0.057	0.441 ± 0.059
10 µM, coculture fibroblast: WS1	0.802 ± 0.0093	0.692 ± 0.013	0.657 ± 0.022	0.593 ± 0.011	0.542 ± 0.012	0.511 ± 0.0093	0.461 ± 0.026	0.46 ± 0.045	0.435 ± 0.049
100 µM, coculture fibroblast: C12385	0.77 ± 0.013	0.7515 ± 0.0072	0.6618 ± 0.0054	0.6849 ± 0.0032	0.639 ± 0.0075	0.611 ± 0.0084	0.5847 ± 0.0038	0.575 ± 0.011	0.5585 ± 0.0035
100 µM, coculture fibroblast: H6013	0.92452 ± 0.00062	0.8849 ± 0.006	0.859 ± 0.011	0.866 ± 0.023	0.858 ± 0.037	0.84 ± 0.058	0.833 ± 0.077	0.82 ± 0.089	0.782 ± 0.097
100 µM, coculture fibroblast: H6019	0.767 ± 0.013	0.697 ± 0.013	0.651 ± 0.021	0.633 ± 0.018	0.593 ± 0.011	0.5718 ± 0.0054	0.52635 ± 0.0004	0.517 ± 0.00071	0.482 ± 0.0057
100 µM, coculture fibroblast: H6076	0.881 ± 0.012	0.824 ± 0.014	0.8019 ± 0.0047	0.80297 ± 0.00046	0.7794 ± 0.0012	0.755 ± 0.0053	0.745 ± 0.018	0.7307 ± 0.0072	0.722 ± 0.008
100 µM, coculture fibroblast: H6231	0.9082 ± 0.0062	0.836 ± 0.017	0.762 ± 0.013	0.72 ± 0.02	0.664 ± 0.023	0.638 ± 0.026	0.6 ± 0.027	0.588 ± 0.028	0.559 ± 0.031
100 µM, coculture fibroblast: HADF	0.904 ± 0.0091	0.865 ± 0.025	0.827 ± 0.021	0.803 ± 0.021	0.772 ± 0.012	0.723 ± 0.029	0.709 ± 0.036	0.692 ± 0.035	0.641 ± 0.04
100 µM, coculture fibroblast: HCFa	0.925 ± 0.025	0.854 ± 0.04	0.819 ± 0.044	0.777 ± 0.031	0.737 ± 0.038	0.695 ± 0.053	0.677 ± 0.052	0.651 ± 0.035	0.619 ± 0.029
100 µM, coculture fibroblast: HCPF	0.89 ± 0.039	0.772 ± 0.054	0.712 ± 0.035	0.689 ± 0.044	0.634 ± 0.03	0.598 ± 0.028	0.566 ± 0.016	0.53 ± 0.017	0.508 ± 0.019
100 µM, coculture fibroblast: HHSteC	0.942 ± 0.01	0.88982 ± 0.0002	0.8417 ± 0.0058	0.8115 ± 0.006	0.77627 ± 0.0004	0.734 ± 0.013	0.6906 ± 0.0064	0.67 ± 0.011	0.623 ± 0.0084
100 µM, coculture fibroblast: HMF	0.874 ± 0.081	0.807 ± 0.093	0.754 ± 0.084	0.715 ± 0.096	0.682 ± 0.091	0.64 ± 0.1	0.607 ± 0.085	0.587 ± 0.085	0.562 ± 0.081
100 µM, coculture fibroblast: HPFa	0.9633 ± 0.0054	0.9093 ± 0.0049	0.8756 ± 0.0087	0.832 ± 0.011	0.817 ± 0.015	0.7889 ± 0.0067	0.73681 ± 0.00044	0.7182 ± 0.0052	0.663 ± 0.017
100 µM, coculture fibroblast: HUF	0.89 ± 0.016	0.761 ± 0.019	0.799 ± 0.021	0.69631 ± 3.6e-05	0.6512 ± 0.001	0.6417 ± 0.005	0.602 ± 0.01	0.618 ± 0.014	0.614 ± 0.01
100 µM, coculture fibroblast: Hs5	0.908 ± 0.052	0.819 ± 0.04	0.778 ± 0.02	0.735 ± 0.012	0.688 ± 0.01	0.6339 ± 0.0053	0.59982 ± 0.00027	0.574 ± 0.0022	0.544 ± 0.0058
100 µM, coculture fibroblast: Hs27A	0.912 ± 0.017	0.872 ± 0.02	0.842 ± 0.011	0.811 ± 0.0095	0.756 ± 0.013	0.6787 ± 0.005	0.702 ± 0.0098	0.685 ± 0.015	0.631 ± 0.011
100 µM, coculture fibroblast: Hs343T	0.888 ± 0.015	0.813 ± 0.039	0.767 ± 0.054	0.732 ± 0.065	0.674 ± 0.071	0.632 ± 0.074	0.59 ± 0.083	0.569 ± 0.082	0.549 ± 0.1
100 µM, coculture fibroblast: WS1	0.773 ± 0.011	0.69 ± 0.022	0.6364 ± 0.0041	0.59 ± 0.012	0.545 ± 0.011	0.5151 ± 0.0042	0.468 ± 0.014	0.453 ± 0.0099	0.429 ± 0.013

± gives the standard deviation of the averaged measurements. Values are relative to the signal before dosing, not to a vehicle control; the signal also falls without drug.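 Fibroblast labels denote human fibroblasts, mainly primary ones from uterus (C12385, HUF), lung (H6013), bone (Hs27A), adrenal (HADF) and skin (WS1), plus mammary HMF and breast cancer-associated Hs343T. Cancer cells are basal-like or mesenchymal-like triple-negative breast cancer lines. A hit is a response shift exceeding 3x replicate standard deviation. The tissue of the other fibroblasts is not given here.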
